Negatives hold for the conditions tested. For some assays here: At least one verdict rests on a figure or table, not on a statement of the authors. For some assays here: Construct, isoform or probe ends are uncertain for at least one entry.

Chains of the proteins cited; added tags and fusions are not shown. Lines headed by an entry give the natural chain unless they say otherwise; changes in a name come on top.
UniProt P0A8V6: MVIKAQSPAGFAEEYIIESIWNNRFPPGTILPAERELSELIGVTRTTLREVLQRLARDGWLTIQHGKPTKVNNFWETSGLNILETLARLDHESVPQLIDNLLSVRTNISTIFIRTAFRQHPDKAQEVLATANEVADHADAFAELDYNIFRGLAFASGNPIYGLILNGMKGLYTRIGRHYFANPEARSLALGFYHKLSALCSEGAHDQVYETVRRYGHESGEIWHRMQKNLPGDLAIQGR
UniProt P0ACJ8: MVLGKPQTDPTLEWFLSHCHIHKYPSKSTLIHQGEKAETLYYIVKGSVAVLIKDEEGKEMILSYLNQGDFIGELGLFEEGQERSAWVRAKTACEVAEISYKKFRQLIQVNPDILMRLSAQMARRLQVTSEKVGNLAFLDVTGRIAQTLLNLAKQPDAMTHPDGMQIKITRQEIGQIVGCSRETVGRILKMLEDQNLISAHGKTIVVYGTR

The values below come from paper PMC3460868.

The target in the first data set is FadR (Escherichia coli) (UniProt P0A8V6). Nature of the data set: EMSA. As to conditions: oleoyl-CoA (25-50 uM in text, 50 pmol in 10 ul in legend); Roche binding buffer (composition not given), 15 min, room temperature; CRP: 0.6 pmol probe in 20 ul (legend; Methods say 0.1 or 0.2 pmol), 5-20 pmol protein; recombinant protein; protein details: His6 (pET28); label: DIG-ddUTP 3' (terminal transferase).
As for “CTCTCGCCACTGGTCTGATTTCTAAGATGTACCTC (double strand) [fadL FadR site 2]”, the binding result is “no binding”.

In the case of “GAAACAGCGGCTGGTCCGCTGTTTCTGCATTCT (double strand) [fadD FadR site 2]”, the binding result is given as “no binding”. Take “GCAACATTCCAGCTGGTCCGACCTATACTCTCGCC (double strand) [fadL FadR site 1]”: the binding result was “no binding”. As to “GTAATTATCAAGCTGGTATGATGAGTTAATATTATG (double strand) [fadD FadR site 1]”, the binding result is listed as “no binding”.

The target in the next data set is CRP (Escherichia coli) (UniProt P0ACJ8). Nature of the data set: EMSA. The note with it: no cAMP; Roche binding buffer (composition not given), 15 min, room temperature; CRP: 0.6 pmol probe in 20 ul (legend; Methods say 0.1 or 0.2 pmol), 5-20 pmol protein; recombinant protein; residues 1-210; protein details: His6 (pET28); label: DIG-ddUTP 3' (terminal transferase).
Turning to “CACCGGGCGTATTCTTTTTGAATCCCATCACAAACCCCGCACTCC (double strand) [fadH CRP site 2 (probe 2)]”, the binding result is given as “no binding”. Same read-out and setting: the entry for “CCCTACACTTCGCGCTCCTGTTACAGCACGTAACATAGTTTGTATAAAAATAAATC (double strand) [fadL CRP site 2 (probe 2)]” is “no binding”; for “GTAAAGATAAAAATAAATAGTGACGCGCTTCGCAACCTTTTCGTTGGG (double strand) [fadD CRP site]” it is “no binding”. Still for that read-out and setting: as for “GTAACCTGGATAAAACGCGACAAGCGTCGCATCCGGCGTTATCACCGG (double strand) [fadH CRP site 1 (probe 1)]”, the entry is “no binding”.
